Experimental data as given in PMC7325376.
These are yes or no findings as the source states them, for the method shown. In cells and extracts the contact can be indirect.

Amino acid sequences for entries named in this document (tags omitted).
UniProt Q9BUT1: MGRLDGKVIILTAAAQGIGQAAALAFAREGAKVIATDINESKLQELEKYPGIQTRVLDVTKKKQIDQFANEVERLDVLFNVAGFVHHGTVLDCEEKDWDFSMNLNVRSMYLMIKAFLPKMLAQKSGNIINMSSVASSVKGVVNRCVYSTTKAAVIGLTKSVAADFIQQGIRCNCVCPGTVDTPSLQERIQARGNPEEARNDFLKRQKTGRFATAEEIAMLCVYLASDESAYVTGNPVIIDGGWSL
UniProt Q16236: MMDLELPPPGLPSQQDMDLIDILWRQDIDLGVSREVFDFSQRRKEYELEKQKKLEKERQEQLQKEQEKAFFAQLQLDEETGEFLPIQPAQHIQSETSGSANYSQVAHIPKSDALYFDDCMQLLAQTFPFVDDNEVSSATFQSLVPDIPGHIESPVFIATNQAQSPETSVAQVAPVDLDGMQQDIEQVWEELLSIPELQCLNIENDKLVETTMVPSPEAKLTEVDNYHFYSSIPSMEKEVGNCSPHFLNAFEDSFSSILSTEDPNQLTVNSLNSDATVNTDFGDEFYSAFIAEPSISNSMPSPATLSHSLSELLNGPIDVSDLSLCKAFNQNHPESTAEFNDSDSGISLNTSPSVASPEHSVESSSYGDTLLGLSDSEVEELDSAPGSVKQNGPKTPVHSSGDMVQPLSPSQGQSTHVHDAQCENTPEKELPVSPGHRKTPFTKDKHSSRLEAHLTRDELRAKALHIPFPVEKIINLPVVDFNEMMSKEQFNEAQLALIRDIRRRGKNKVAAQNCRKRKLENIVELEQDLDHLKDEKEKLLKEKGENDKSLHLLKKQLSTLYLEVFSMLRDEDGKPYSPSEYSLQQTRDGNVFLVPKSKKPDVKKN
UniProt Q14145: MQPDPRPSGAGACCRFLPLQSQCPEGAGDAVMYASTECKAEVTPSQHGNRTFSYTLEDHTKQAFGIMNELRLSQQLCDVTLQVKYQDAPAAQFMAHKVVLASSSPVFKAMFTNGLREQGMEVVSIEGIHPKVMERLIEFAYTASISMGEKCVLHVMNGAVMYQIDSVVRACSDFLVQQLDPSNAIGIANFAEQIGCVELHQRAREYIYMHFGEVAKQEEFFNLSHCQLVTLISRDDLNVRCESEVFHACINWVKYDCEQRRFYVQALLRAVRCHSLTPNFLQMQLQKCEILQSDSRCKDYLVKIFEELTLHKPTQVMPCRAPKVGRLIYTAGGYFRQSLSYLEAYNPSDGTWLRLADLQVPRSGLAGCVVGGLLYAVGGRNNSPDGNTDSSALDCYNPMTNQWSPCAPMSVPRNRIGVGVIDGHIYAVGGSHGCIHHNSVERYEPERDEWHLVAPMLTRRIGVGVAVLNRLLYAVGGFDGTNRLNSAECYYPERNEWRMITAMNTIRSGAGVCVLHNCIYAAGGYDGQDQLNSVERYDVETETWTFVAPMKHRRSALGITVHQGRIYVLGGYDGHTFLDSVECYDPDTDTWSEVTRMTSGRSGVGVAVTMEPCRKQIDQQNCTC

Target: FLAG-tagged BDH2 (3-Hydroxy butyrate dehydrogenase 2) (human) (UniProt Q9BUT1)
Assay: co-IP; HEK293T cells overexpressing Flag-BDH2, HA-Keap1 and Myc-Nrf2; total lysate, immunoprecipitation with anti-Flag antibody at 4 °C overnight, protein A + G agarose, blots with anti-HA and anti-Myc

| Substance | binding |
| --- | --- |
| MYC-tagged Nrf2 (Nuclear factor erythroid 2-related factor 2) (from UniProt Q16236 1-605) | no binding |
| HA-tagged Keap1 (Kelch-like ECH-associated protein 1) (from UniProt Q14145 1-624) | no binding |
